Results are given in words; binding and its absence hold for the method and conditions named. Binding seen in cells or lysates may run through a third protein. For some of these results: Binding calls can cover weak binding; strength is not graded here.
How the values were obtained:
Experiment in all cases: co-IP; HEK293 cells with stable retroviral shRNA knockdown of endogenous TBX3, transfected with wild type or mutant Tbx3; Tbx3 IP, immunoblot for endogenous DDX3, hnRNP C, DDX17
Tbx3 L143P (mouse) = Tbx3 L143P (mouse) (UniProt P70324)
Tbx3 N277D (mouse) = Tbx3 N277D (mouse) (UniProt P70324)
Tbx3ΔNLS (mouse) = Tbx3ΔNLS (mouse) (UniProt P70324)
Tbx3+2a (mouse) = Tbx3+2a (mouse) (UniProt P70324)
Tbx3ΔRD1 (mouse) = Tbx3ΔRD1 (mouse) (UniProt P70324)

Sequences of proteins named here, by UniProt entry; tags and fusion partners are left off. A change or cut given only in a name is not applied to a line headed by its entry.
UniProt P70324: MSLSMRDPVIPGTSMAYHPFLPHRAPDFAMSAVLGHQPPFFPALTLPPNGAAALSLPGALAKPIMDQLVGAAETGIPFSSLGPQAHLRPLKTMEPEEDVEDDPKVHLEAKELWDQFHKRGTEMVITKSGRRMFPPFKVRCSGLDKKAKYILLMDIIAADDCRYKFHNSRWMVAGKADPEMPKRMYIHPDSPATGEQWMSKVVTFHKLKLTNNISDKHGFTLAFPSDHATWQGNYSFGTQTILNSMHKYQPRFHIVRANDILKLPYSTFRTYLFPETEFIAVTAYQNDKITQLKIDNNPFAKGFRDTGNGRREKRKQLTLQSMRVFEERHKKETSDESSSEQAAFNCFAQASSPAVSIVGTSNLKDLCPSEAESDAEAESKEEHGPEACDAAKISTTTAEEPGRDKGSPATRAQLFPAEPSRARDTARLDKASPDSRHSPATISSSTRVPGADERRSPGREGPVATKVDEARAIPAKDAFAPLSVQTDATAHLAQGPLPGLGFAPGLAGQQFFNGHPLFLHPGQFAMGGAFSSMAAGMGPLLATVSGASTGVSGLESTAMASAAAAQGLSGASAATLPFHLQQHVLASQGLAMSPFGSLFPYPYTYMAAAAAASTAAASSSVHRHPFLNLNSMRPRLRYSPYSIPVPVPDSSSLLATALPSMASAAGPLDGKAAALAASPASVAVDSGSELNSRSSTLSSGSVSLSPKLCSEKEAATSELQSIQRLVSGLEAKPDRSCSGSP
UniProt Q92841: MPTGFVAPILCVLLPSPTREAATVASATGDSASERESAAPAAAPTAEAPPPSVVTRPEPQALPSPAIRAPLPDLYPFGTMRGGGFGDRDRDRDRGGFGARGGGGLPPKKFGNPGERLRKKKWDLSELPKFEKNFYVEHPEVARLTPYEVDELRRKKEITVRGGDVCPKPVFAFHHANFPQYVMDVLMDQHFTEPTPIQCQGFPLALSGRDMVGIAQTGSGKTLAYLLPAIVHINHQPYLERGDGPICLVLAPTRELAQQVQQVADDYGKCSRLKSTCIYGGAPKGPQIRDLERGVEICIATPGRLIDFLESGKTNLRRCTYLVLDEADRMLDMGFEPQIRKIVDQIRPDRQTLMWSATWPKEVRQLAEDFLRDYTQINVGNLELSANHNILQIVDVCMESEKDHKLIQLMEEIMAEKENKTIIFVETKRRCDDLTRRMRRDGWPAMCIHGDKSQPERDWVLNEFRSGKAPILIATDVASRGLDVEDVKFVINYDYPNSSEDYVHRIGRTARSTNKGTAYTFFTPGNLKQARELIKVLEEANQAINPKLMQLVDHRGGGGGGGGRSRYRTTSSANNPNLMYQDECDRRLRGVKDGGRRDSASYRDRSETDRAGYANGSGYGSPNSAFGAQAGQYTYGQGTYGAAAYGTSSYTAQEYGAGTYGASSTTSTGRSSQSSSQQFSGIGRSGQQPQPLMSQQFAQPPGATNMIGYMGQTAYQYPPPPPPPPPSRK
UniProt O00571: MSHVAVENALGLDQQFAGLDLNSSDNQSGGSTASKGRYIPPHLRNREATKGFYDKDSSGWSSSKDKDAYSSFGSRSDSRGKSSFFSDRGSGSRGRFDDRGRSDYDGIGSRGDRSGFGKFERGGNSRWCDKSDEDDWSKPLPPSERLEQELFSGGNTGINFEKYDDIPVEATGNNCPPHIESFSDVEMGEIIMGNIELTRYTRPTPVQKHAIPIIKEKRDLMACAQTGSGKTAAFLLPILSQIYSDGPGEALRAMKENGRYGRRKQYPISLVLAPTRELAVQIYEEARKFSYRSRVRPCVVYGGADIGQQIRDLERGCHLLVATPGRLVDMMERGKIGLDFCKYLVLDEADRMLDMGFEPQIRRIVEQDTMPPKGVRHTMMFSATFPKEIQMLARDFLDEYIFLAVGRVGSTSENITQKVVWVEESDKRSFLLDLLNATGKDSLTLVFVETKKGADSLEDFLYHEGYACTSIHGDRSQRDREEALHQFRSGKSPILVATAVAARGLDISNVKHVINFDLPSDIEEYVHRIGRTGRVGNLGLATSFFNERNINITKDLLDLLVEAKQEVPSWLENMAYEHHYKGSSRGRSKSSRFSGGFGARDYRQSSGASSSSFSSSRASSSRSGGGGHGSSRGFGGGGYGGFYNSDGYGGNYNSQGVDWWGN

Substance | binding (Tbx3 L143P (mouse)) | binding (Tbx3 N277D (mouse)) | binding (Tbx3ΔNLS (mouse)) | binding (Tbx3+2a (mouse)) | binding (Tbx3ΔRD1 (mouse))
Probable ATP-dependent RNA helicase DDX17 (from UniProt Q92841 1-729) | binds | binds | – | – | –
ATP-dependent RNA helicase DDX3X (from UniProt O00571 1-662) | no binding | no binding | no binding | binds | no binding
